{"sequences": {"note": "Amino acid sequences for entries named in this document (tags omitted).", "UniProt Q86WJ1": "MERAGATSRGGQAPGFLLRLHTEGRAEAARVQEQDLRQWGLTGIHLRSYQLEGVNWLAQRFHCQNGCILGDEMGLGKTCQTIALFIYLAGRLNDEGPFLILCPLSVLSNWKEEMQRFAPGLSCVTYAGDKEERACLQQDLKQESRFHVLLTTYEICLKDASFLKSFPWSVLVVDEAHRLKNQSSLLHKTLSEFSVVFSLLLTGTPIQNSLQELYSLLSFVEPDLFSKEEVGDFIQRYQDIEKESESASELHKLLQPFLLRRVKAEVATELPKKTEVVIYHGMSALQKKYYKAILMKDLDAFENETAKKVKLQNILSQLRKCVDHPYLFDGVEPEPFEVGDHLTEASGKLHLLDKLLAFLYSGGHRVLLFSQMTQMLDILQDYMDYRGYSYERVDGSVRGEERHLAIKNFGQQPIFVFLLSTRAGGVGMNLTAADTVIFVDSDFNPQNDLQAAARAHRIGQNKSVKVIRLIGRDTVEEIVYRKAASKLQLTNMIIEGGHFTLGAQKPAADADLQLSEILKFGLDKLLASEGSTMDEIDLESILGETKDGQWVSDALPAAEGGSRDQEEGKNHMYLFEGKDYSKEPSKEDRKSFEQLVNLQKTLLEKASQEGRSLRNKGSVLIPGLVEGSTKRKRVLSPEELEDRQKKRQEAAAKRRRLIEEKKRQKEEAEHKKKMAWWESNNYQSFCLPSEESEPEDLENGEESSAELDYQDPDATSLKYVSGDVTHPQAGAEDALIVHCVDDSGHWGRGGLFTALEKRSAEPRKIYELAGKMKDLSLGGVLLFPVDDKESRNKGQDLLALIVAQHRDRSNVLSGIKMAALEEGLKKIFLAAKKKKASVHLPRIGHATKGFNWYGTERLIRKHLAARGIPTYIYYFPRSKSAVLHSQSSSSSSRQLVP", "UniProt Q9NRC8": "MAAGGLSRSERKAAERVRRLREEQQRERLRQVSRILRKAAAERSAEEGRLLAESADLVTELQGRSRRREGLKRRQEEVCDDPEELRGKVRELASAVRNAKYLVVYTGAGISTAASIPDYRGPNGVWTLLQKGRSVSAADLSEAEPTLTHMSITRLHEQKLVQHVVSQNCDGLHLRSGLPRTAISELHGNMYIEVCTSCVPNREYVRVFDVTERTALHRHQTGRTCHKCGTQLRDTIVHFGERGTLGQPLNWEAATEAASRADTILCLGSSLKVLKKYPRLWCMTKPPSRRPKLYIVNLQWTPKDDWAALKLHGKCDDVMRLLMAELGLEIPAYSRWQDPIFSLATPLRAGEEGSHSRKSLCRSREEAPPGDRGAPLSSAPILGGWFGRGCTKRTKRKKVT", "UniProt Q99814": "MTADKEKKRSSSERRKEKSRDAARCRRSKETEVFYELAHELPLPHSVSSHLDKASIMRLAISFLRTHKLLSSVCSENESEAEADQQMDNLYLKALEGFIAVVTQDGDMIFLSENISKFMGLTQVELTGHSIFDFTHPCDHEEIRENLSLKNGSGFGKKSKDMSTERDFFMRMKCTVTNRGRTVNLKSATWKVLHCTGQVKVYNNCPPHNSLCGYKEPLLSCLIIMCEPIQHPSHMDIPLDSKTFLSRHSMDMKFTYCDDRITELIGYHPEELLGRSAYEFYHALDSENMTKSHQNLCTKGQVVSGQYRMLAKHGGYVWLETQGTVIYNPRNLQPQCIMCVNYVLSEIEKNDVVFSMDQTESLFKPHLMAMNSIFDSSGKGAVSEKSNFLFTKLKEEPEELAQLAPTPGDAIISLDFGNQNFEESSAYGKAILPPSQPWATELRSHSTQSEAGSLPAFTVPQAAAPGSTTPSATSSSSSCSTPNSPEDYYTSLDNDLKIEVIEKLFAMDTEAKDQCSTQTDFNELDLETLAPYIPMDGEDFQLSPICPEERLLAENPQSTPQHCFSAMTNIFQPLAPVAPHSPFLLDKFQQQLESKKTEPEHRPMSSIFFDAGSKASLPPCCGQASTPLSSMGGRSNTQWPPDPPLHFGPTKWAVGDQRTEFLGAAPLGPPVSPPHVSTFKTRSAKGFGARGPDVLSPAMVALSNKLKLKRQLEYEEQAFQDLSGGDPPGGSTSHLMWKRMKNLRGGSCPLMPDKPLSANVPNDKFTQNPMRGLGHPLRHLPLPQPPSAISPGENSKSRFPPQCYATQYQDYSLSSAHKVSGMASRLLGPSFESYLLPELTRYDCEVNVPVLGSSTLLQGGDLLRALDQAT"}, "source": "paper PMC10493023", "key": {"[1]": {"target": "CHD1L (human (endogenous in 786-O)) (UniProt Q86WJ1)", "assay": "co-IP; endogenous proteins; cells lysed in 200 mM KCl, 20 mM Tris-HCl pH 7.9, 5 mM MgCl2, 10% glycerol, 0.2 mM EDTA, 0.1% NP-40; lysates with antibodies or control IgG at 4 °C overnight; western blot"}, "[2]": {"target": "SIRT7 (human (endogenous in 786-O)) (UniProt Q9NRC8)", "assay": "co-IP; endogenous proteins; cells lysed in 200 mM KCl, 20 mM Tris-HCl pH 7.9, 5 mM MgCl2, 10% glycerol, 0.2 mM EDTA, 0.1% NP-40; lysates with antibodies or control IgG at 4 °C overnight; western blot"}}, "note": "No constants are given. Whether binding was seen depends on the method and setting. In cells and extracts the contact can be indirect. Some entries that bind do so weakly or less than the wild type."}
{"substance": "HIF-2α (from UniProt Q99814 1-870)", "values": [{"measurement": "binding", "setting": "[1]", "result": "binds"}]}
{"substance": "CHD1L (from UniProt Q86WJ1 1-897)", "values": [{"measurement": "binding", "setting": "[2]", "result": "binds"}]}
{"substance": "SIRT7 (from UniProt Q9NRC8 1-400)", "values": [{"measurement": "binding", "setting": "[1]", "result": "binds"}]}
